# Results deposited as PubChem BioAssay AID1259424 (University of Nebraska Medical Center, 2018).
# Purpose: 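Seek colon cancer survival genes behaving like KSR1, using a six-gene signature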 (primary screen)
# Cell system: human HCT116 colon cancer cells
# Reagents: siRNA pool against human genes, 50 nM
# Read-out: 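Six signature mRNAs by branched-DNA multiplex assay, scaled to two housekeeping genes and non-targeting median, log2; matched to mean KSR1 knockdown profile by Pearson correlation and euclidean distance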
# Scale: mean correlation with KSR1 profile and KSR1 correlation: higher = expression change more like KSR1 knockdown; mean distance from KSR1 profile: higher = expression change less like KSR1 knockdown
# Shown is an unselected part of about 14,000 deposited reagents. 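Higher correlation or smaller distance means closer resemblance to KSR1 loss; control wells, including KSR1 knockdowns, recur on many plates.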 No sequences are given here. The record does not give: the time to read-out.
gene knocked down,mean correlation with KSR1 profile,mean distance from KSR1 profile,"KSR1 correlation, replicate 1","KSR1 correlation, replicate 2","KSR1 correlation, replicate 3"
CLDN14 (GeneID 23562),-0.628,2.35,-0.485,-0.485,-0.811
CWC25 (GeneID 54883),-0.139,2.55,0.0338,-0.0948,-0.577
SRGAP1 (GeneID 57522),-0.149,1.23,-0.697,-0.0938,0.102
MYRF (GeneID 745),-0.749,2.23,-0.648,-0.7,-0.861
PRMT8 (GeneID 56341),0.156,2.21,0.241,-0.0102,-0.296
WDR45 (GeneID 11152),-0.225,3.2,-0.143,-0.315,-0.241
TPRKB (GeneID 51002),-0.415,3.51,-0.296,-0.523,-0.394
HIGD1B (GeneID 51751),-0.184,1.78,0.0429,-0.424,-0.376
NDC1 (GeneID 55706),-0.0482,1.19,-0.509,0.194,0.187
CLMP (GeneID 79827),0.722,1.3,0.753,0.796,0.604
ATF2 (GeneID 1386),-0.229,2.53,-0.111,-0.384,-0.409
ZNF577 (GeneID 84765),0.192,3.92,0.0881,0.173,0.123
WT1 (GeneID 7490),-0.167,2.72,-0.092,-0.298,0.259
SASH1 (GeneID 23328),-0.143,1.95,-0.382,-0.119,-0.103
SS18 (GeneID 6760),0.179,1.67,0.139,0.17,0.505
RC3H2 (GeneID 54542),-0.185,1.67,-0.306,-0.0937,-0.437
CHMP6 (GeneID 79643),0.488,2.43,0.514,0.496,0.368
VEGFD (GeneID 2277),0.378,2.27,0.4,0.538,0.0973
MT-CO2 (GeneID 4513),0.372,1.92,-0.117,0.334,0.692
GHDC (GeneID 84514),-0.0519,1.85,-0.38,0.554,-0.556
EXOC7 (GeneID 23265),-0.396,2.37,-0.276,-0.472,-0.313
SCO1 (GeneID 6341),0.468,2,0.46,0.215,0.554
GPHRB (GeneID 51463),0.407,4.13,0.402,0.484,0.352
APOBEC2 (GeneID 10930),-0.102,2.8,-0.0164,-0.213,-0.201
APEH (GeneID 327),0.231,1.08,0.0161,0.276,0.524
DOK1 (GeneID 1796),0.0143,4.23,0.177,-0.0777,-0.0736
IFNA21 (GeneID 3452),-0.356,4.13,-0.382,-0.333,-0.362
ATP6V1F (GeneID 9296),-0.16,1.99,0.173,0.578,-0.285
RASGRP4 (GeneID 115727),0.00501,3.12,-0.0341,0.0655,0.134
SLCO2B1 (GeneID 11309),0.293,2.23,0.374,-0.0942,0.746
TIGAR (GeneID 57103),-0.228,1.99,-0.295,-0.302,-0.244
IGSF3 (GeneID 3321),0.163,1.97,-0.153,0.017,0.612
DOHH (GeneID 83475),0.61,2.34,0.501,0.563,0.581
RBM39 (GeneID 9584),-0.636,2.41,-0.451,-0.51,-0.649

Look-ups from the list:
ATP6V1F (GeneID 9296), KSR1 correlation, replicate 2: 0.578
MT-CO2 (GeneID 4513), mean correlation with KSR1 profile = 0.372
